Results as given in PubChem BioAssay AID1259415 (National Center for Advancing Translational Sciences (NCATS), 2018).
Where “and” joins values, the source holds several entries; their conditions need not be identical. Equal entries are not always repeated. In all, about 410,000 compounds went through this assay and about 18,000 (4.4%) were called active. The inconclusive results got no clear call from the source; some entries with a clear call stand among them for comparison. Rule as the data show it: active = activity change below about -60%; inconclusive = no clear call, values can overlap the other calls; inactive = above about -39%. Where a structure was tested more than once in an assay, its records may differ in their call.

Test: qHTS Assay for inhibitors of the human cytomegalovirus (HCMV)
Details: HFF cells, HCMV-luciferase reporter, 72 h; at 57.5 µM; stronger effect = lower value
Procedure, shortened: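 Human foreskin fibroblasts infected with luciferase-reporter HCMV at MOI 1 PFU/cell, compounds at two doses. Luciferase measured 72 h post infection; normalized to buffer-only basal and Salinomycin (10uM) controls.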
% is scaled to controls: 0 for no effect and ±100 for the full control effect.

| SMILES | activity change, negative = inhibition |
| --- | --- |
| CC(Sc1nc(NC(C)(C)C)nc(N(C)C)n1)C(=O)Nc1ccccc1 (configuration not stated) | active: -60.8% |
| COc1ccc(C(=O)N(Cc2ccco2)Cc2ccccc2F)cc1Cl | inactive: -31.9% |
| CCOC(=O)CC1(C)OCC(C[N+]2(C)CCCCC2)O1 (configuration not stated) | inconclusive: -45.4% |
| CC12CCC(C(=O)Nc3ccc(Cl)cc3)([C@H](Br)C1=O)C2(C)C (some centres not stated) | active: -60.5% |
| CCc1ccc(NC(=O)C2CCN(S(=O)(=O)c3ccc4c(c3)CC(C)N4C(C)=O)CC2)cc1 (configuration not stated) | active: -92.8% |
| O=C(CCC(=O)N1CCOc2ccccc21)NCc1cccs1 | inactive: 1.35% |
| CCc1ccc2[nH]c3nc(SCc4nnc(-c5ccccc5)o4)nnc3c2c1 | inactive: -27.8% |
| CCN(c1ccccc1)c1ncnc2c1cnn2-c1ccc(OC)cc1 | inactive: 4.04% |
| Cn1nc(C(=O)Nc2ccc(Cl)c(S(=O)(=O)N3CCOCC3)c2)c2ccccc2c1=O | inactive: 19.5% |
| Cc1cc(C)c(S(=O)(=O)N(CC(=O)N2CCCC2)C2CCCCC2)c(C)c1 | inconclusive: -52% |
| CC(C)(C)c1cc(/C=N/NC(=O)Cc2nc3ccccc3[nH]2)cc(C(C)(C)C)c1O | active: -78.6% |
| COc1ccc(C(=O)N2CCN(S(=O)(=O)c3ccc(Cl)cc3)CC2)cc1OC | inconclusive: -41.7% |
| O=C1COc2ccc(C(=O)COC(=O)Cc3c(F)cccc3Cl)cc2N1 | inactive: -34.7% |
| Cc1cc(Nc2ccccc2)n(C(=O)c2ccc(Cl)cc2)n1 | inactive: 9.86% |
| Cc1cc(OCC(=O)OCC(=O)c2c(N)n(C)c(=O)n(C)c2=O)ccc1Cl | inactive: -7.56% |
| Cc1cc(=O)oc2cc(OCC(=O)N3CCN(C(=O)C4COc5ccccc5O4)CC3)c(Cl)cc12 (configuration not stated) | inactive: 0% |
| Cc1nc(NC(=S)NC(=O)c2ccccc2)sc1C | inactive: 44.8% |
| O=C(NCC1COc2ccccc2O1)c1cccs1 (configuration not stated) | inactive: 66.3% |
| O=C(CCN1C(=O)/C(=C/c2cccs2)SC1=S)Nc1ccc(C(=O)O)c(O)c1 | inconclusive: -43.4% |
| Cc1cccc(OCCCC(=O)Nc2ccc(S(=O)(=O)Nc3onc(C)c3C)cc2)c1 | inconclusive: -53.7% |
| O=C(Cn1sc2ccccc2c1=O)Nc1ccc(F)cc1 | inconclusive: -41.5% |
| Cc1cc(C)c(S(=O)(=O)NCc2cn3c(C)csc3n2)c(C)c1 | inactive: -30.5% |

| SMILES | activity change, negative = inhibition |
| --- | --- |
| Cc1cccc(NC(=O)c2ccc(S(=O)(=O)N3CCC(C)CC3)cc2)n1 | active: -76.6% |
| COc1ccc(NC(=O)c2ccc(NC(=O)C3CC3)cc2)cc1 | inconclusive: -40.4% |
| CCCn1nc(C(=O)Nc2ccc3c(c2)OCCO3)c2ccccc2c1=O | inconclusive: -49.9% |
| CC1CC(C)CN(CCCNC(=O)c2ccc3c(c2)N(Cc2ccccc2)C(=O)c2ccccc2S3=O)C1 (configuration not stated) | inconclusive: -42.4% |
| Cc1nn(-c2ccccc2)c(Cl)c1/C=N/NC(=O)c1nn(C)cc1[N+](=O)[O-] | active: -99% |
| CC(=O)Nc1nc2ccc(C(=O)NC3CCCCC3)cc2s1 | inactive: 26% |
| Cc1onc(-c2ccccc2)c1C(=O)N=C(N)c1ccc(Cl)cc1 | inconclusive: -41.6% |
| COc1ccccc1NC(=O)OC(C)c1ccc(Cl)cc1 (configuration not stated) | inactive: -14.1% |
| COC(=O)C[C@@H]1CC[C@H](NC(=O)CC2CC2)[C@@H](CO)O1 | inconclusive: -44.2% |
| O=S(=O)(NCc1ccccn1)c1ccc(Br)s1 | inconclusive: -40.3% |
| Cc1cc(C)c(S(=O)(=O)N2Cc3ccccc3-n3nncc3C2)c(C)c1 | inconclusive: -55.5% |
| O=C(Nc1cccc(C(F)(F)F)c1)Nc1nnc([C@@H]2C[C@H](O)[C@@H](CO)O2)s1 | inconclusive: -42.1% |
| CS(=O)(=O)c1ccc(Nc2cc3c(cn2)cc(-c2ccccc2)n3Cc2ccccc2)cc1 | inactive: -27.8% |
| COc1ccc(C2N=C(N)N=C(N)N2c2ccc(C)cc2)cc1 (configuration not stated) | inconclusive: -55.2% |
| COc1ccc(NC(=O)c2ccco2)cc1NC(=O)c1cccc(C)c1OC | inconclusive: -41.6% |
| Cc1ccccc1-n1c(SCC(=O)c2ccccc2)nnc1-c1ccc(F)cc1 | inconclusive: -56.1% |
| Cc1ccc2c(C)nc(/N=C(\N)NC(=O)N3c4ccccc4Sc4ccccc43)nc2c1 | inconclusive: -40% and inconclusive: -57.1% |
| Cc1cc(OC(C)C(=O)NCc2cccnc2)c2c(C)c(Cc3ccccc3)c(=O)oc2c1 (configuration not stated) | inconclusive: -46.1% |
| Cc1ccc(SCC(=O)Nc2ccc(O)c(-c3nc4cc(C)ccc4o3)c2)cc1 | inactive: -15.8% |
| Cc1ccc(NC(=O)NC(C)c2c(-n3cccc3)sc(C)c2C)c(C)c1 (configuration not stated) | inconclusive: -55% |
| Cc1cc(/C=C(\C#N)C(=O)O)c(C)n1CC(C)C | inconclusive: -52.4% |
| CC(C)OC(=O)CSc1nc(N)c(C#N)cc1C#N | inconclusive: -41.1% |

| SMILES | activity change, negative = inhibition |
| --- | --- |
| CCOC(=O)c1c(/N=C/c2cccc([N+](=O)[O-])c2O)sc(C)c1C | inconclusive: -46.3% |
| CC1=CC2=NC(=O)/C(=C\c3ccc(-c4ccc(Cl)cc4)o3)C(=N)N2O1 | inconclusive: -42.3% |
| NC(=S)N=Nc1c(O)n(Cc2ccccc2)c2ccccc12 | inconclusive: -53.1% |
| O=C(NC1(Cc2ccccc2)CCN(CCCc2ccccc2)C1=O)c1ccccc1 (configuration not stated) | active: -98.1% |
| CN(C)CCCNS(=O)(=O)c1ccc(Cl)s1 | inactive: 38% |
| Nc1c(C(=O)CSc2nccn2-c2ccc(Cl)cc2)c(=O)[nH]c(=O)n1C1CC1 | inconclusive: 0% |
| Cc1c(N(C)CS(=O)(=O)O)c(=O)n(-c2ccccc2)n1C | inconclusive: -55.4% |
| CC(=O)Nc1ccc(S(=O)(=O)Nc2ccc(Cc3ccncc3)cc2)cc1 | inconclusive: -50% |
| O=C(Nc1nnc(S(=O)(=O)N2CCCc3ccccc32)s1)c1ccc(Cl)cc1 | inactive: -15.2% |
| CCn1c(SCc2ccccc2)nc2c1c(=O)[nH]c(=O)n2C | inactive: 44.5% |
| CCc1ccccc1NC(=O)Cn1c(=O)n(-c2ccccc2)c(=O)c2oc3ccccc3c21 | inconclusive: -41.8% |
| Cc1ccc(Cl)cc1N1CCN(S(C)(=O)=O)CC1 | inconclusive: -45.9% |
| Nc1nnc(SCCCC(=O)c2ccc(F)cc2)s1 | inactive: 23.8% |
| Nc1ccccc1C#Cc1cnccn1 | inactive: 25.8% |
| CCSc1nc(-c2ccc(OC)cc2)cc(-c2ccc(OC)cc2)c1C#N | inconclusive: -57.3% |
| Cc1nc2ccc(S(=O)(=O)NCC(=O)NCc3ccc(Cl)cc3)cc2s1 | inactive: 39.5% and active: -69.4% |
| Cc1c(CC(=O)N2CCN(C(=O)C3COc4ccccc4O3)CC2)c(=O)oc2c(C)c(O)ccc12 (configuration not stated) | inconclusive: -48.5% |
| Cc1ccc(C)c(NC(=O)CSc2cn(CC(=O)N3CCCCC3)c3ccccc23)c1 | inconclusive: -44% |
| CNS(=O)(=O)c1cc(NC(=O)c2cnc(SC)n2-c2ccccc2)ccc1C | inactive: -7.35% |
| Cc1cc(=O)[nH]c2nnc(SCc3cccc(C(F)(F)F)c3)n12 | inconclusive: -49.7% |
| COc1ccc(-c2nnc(SCc3cccc(C)c3)n2N)cc1 | inconclusive: -42.7% |
| Fc1cccc(F)c1/C=N/NC(=S)Nc1cccnc1 | inconclusive: -45.3% |

2 compounds drawn at random from those above:

| SMILES | activity change, negative = inhibition |
| --- | --- |
| CCn1c(SCc2ccccc2)nc2c1c(=O)[nH]c(=O)n2C | inactive: 44.5% |
| Nc1c(C(=O)CSc2nccn2-c2ccc(Cl)cc2)c(=O)[nH]c(=O)n1C1CC1 | inconclusive: 0% |

Following part.

| SMILES | activity change, negative = inhibition |
| --- | --- |
| O=C(/C=C/c1ccccc1[N+](=O)[O-])OCC(=O)N1CCCC1 | inactive: 11.1% |
| FC(F)(F)c1nnc(Nc2ccc(Cl)cc2)s1 | inactive: -38.5% |
| Cc1ccc2c(CNCCc3ccco3)c(C(=O)O)n(Cc3ccc(F)cc3)c2c1 | active: -109% |
| COc1ccc(NC(=O)CCCc2nnc3n(C(C)C)c(=O)c4sccc4n23)cc1Cl | inconclusive: -49.1% |
| Cc1cc(O)c2c3c(c(=O)oc2c1)CCC(C)C3 (configuration not stated) | inconclusive: -56.6% |
| CC(=O)Nc1ccc(NC(=O)CSc2nc3c([nH]c4ccccc43)c(=O)n2-c2ccccc2F)cc1 | inactive: -25.1% |
| CC1(C)CC(=O)C2=C(C1)c1c(ccc3ccccc13)NC2c1ccc(C(=O)O)cc1 (configuration not stated) | inactive: 1.2% |
| Cc1ccc(/C=N/NC(=O)C(C)Oc2cccc3ccccc23)o1 (configuration not stated) | active: -66.3% |
| Cc1ccc(CCC(=O)Nc2ccc([N+](=O)[O-])cc2)o1 | inactive: 0.119% |
| O=S(=O)(c1ccccc1)N1CCN(c2cc(-c3ccccc3)nc3ncnn23)CC1 | active: -90.9% |
| Cc1ccc(C(=O)NNC(=O)CCCN2C(=O)/C(=C/c3ccccc3Cl)SC2=S)cc1 | inconclusive: -42.6% |
| O=c1c2ccccc2sn1-c1ccc(S(=O)(=O)N2CCCC2)cc1 | inactive: 0.287% |
| CC(NC(=O)COc1ccccc1F)C1CC2CCC1C2 (configuration not stated) | inconclusive: -55.8% |
| COc1ccc(C(=O)/C=C/Nc2cccc(O)c2)cc1 | inactive: 222% |
| CCOC(=O)c1c(C)oc2nc(C)nc(NCCc3ccc(OCC)cc3)c12 | inactive: -36.5% |
| CCOC(=O)c1ccc(NC(=O)CSCCC(=O)O)cc1 | inconclusive: -45.5% |
| CC1=C(C(=O)NCc2cccc(Cl)c2)C2(CCCCCC2)OC1=O | inconclusive: 0% |
| CC(=O)C1=NN(c2ccccc2)C(c2ccc3c(c2)OCO3)N1c1ccccc1 (configuration not stated) | inconclusive: -52.3% |
| O=C(Cc1cccs1)N(Cc1cccs1)C1(C(=O)NC2CCCCC2)CCCCC1 | inconclusive: -48.1% |
| Cc1ccc(SCCNC(=O)CN(c2cccc(C)c2C)S(C)(=O)=O)cc1 | inactive: -35.2% |
| CCO[C@@H]1OC(C(=O)N2CCN(C)CC2)=C[C@H](C2CCCCC2)[C@H]1CCCO | inconclusive: -46.7% |

A second format for some results above:
COc1ccc(C(=O)/C=C/Nc2cccc(O)c2)cc1
  activity change, negative = inhibition: inactive: 222%
CCOC(=O)c1c(C)oc2nc(C)nc(NCCc3ccc(OCC)cc3)c12
  activity change, negative = inhibition: inactive: -36.5%
CCOC(=O)c1ccc(NC(=O)CSCCC(=O)O)cc1
  activity change, negative = inhibition: inconclusive: -45.5%
CC1=C(C(=O)NCc2cccc(Cl)c2)C2(CCCCCC2)OC1=O
  activity change, negative = inhibition: inconclusive: 0%
